Laboratory results from US20200121652A1, “COMPOUNDS HAVING CASPASE INHIBITORY ACTIVITY, PHARMACEUTICAL AGENT CONTAINING SAID COMPOUNDS AND FOR TREATING OR PREVENTING CORNEAL ENDOTHELIAL SYMPTOMS, DISORDERS, OR DISEASES, AND APPLICATION OF SAID PHARMACEUTICAL AGENT” (The Doshisha, priority 2017, published 2020).

Tested on: immortalized Fuchs' endothelial corneal dystrophy cells
Assay: Concentration-dependent caspase 3/7 activity under TGF-β2 stimulation (Example 3)
Assay type: cell-based
Conditions: Homo sapiens; TGF-β2 10 ng/mL, 28 hours; agent 10 μM
Experimental: 7×10^3 immortalized Fuchs' endothelial corneal dystrophy cells were seeded on a 96-well plate and were cultured for 24 hours under the condition of 5% CO2 at 37° C.
After 28 hours under the condition of 5% CO2 at 37° C., cell morphology was observed using a phase difference microscope. Caspase 3/7 activity was then measured using Caspase-Glo 3/7 Assay (Promega, #G8091). DMEM+2% FBS+1% P/S was used as the medium. Caspase 3/7 activity and cell viability in this example were measured using GloMax-Multi Detection System (Promega, E7051).
Caspase 3/7 activity below 80% was used as a indicator indicating whether an agent can be used for treating or preventing a corneal endothelial condition, disorder, or disease, or whether an agent can be used as a caspase inhibitor (the underlines in FIG. 4A-1, FIG. 4A-2 and FIG. 4A-3, and FIG. 4B-1, FIG. 4B-2 and FIG. 4B-3).

Q: With Clc1ccc(CO/N=C(\Cn2ccnc2)c2ccc(Cl)cc2Cl)c(Cl)c1 [Oxiconazole Nitrate] as the molecule, how does the activity at 10 µM read?
A: ≤ 80%
